39 molecules from the supplement of paper PMC12542422 can be followed below.

Counter-ions that a name gives are not always drawn. ± gives the standard deviation of the averaged measurements. This is one part of the list. Values are raw readings; no control value is given beside them.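 HeLa cells imaged for ribosome-assembly readouts (ENP1 staining with or without export block, or inducible tagged ribosomal protein reporters); machine learning classified each cell's signal location against solvent (DMSO) controls. Hits exceeded the DMSO false-positive mean by five standard deviations, then were visually confirmed; three biological replicates.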

The test concerns HeLa RPS2-YFP reporter. The test can be described thus: fraction of reporter-positive cells with nuclear (nucleolar or nucleolar/nucleoplasmic) RPS2-YFP (MainHitrate); higher = more cells with nucleolar/nuclear readout signal (for ENP1 -LMB: less RNAPI inhibition; for +LMB ENP1 and RP reporters: stronger nuclear/nucleolar retention, i.e. ribosome biogenesis defect). The conditions noted are these: concentration: 1 µM; treatment time: 6 h.
Take `CCCCCCCCCCCCCCCCCCCCCCO` [Docosanol (Abreva)]: the “fraction of reporter-positive cells with nuclear” value (“fraction” below) worked out at 0.104 ± 0.051. Consider `Clc1ccc2nsnc2c1NC1=NCCN1` [Tizanidine HCl], for which the “fraction” value was 0.118 ± 0.067. `COc1cc(C(=O)NS(=O)(=O)c2ccccc2C)ccc1Cc1cn(C)c2ccc(NC(=O)OC3CCCC3)cc12` [Zafirlukast (Accolate)]: the “fraction” value stood at 0.115 ± 0.076.

For the molecule `Cc1nc(-c2ccc(OCC(C)C)c(C#N)c2)sc1C(=O)O` [Febuxostat (Uloric)], the “fraction” value was determined as 0.0691 ± 0.029.

Turning to `COc1nc(N)nc2c1ncn2[C@@H]1O[C@H](CO)[C@@H](O)[C@@H]1O` [Nelarabine (Arranon)], the “fraction” value turned out to be 0.113 ± 0.069.

As to `S=c1[nH]cnc2nc[nH]c12` [Mercaptopurine], the “fraction” value is 0.0806 ± 0.078. On to `Cc1ccc(-c2cc(C(F)(F)F)nn2-c2ccc(S(N)(=O)=O)cc2)cc1` [Celecoxib], for which the “fraction” value stood at 0.101 ± 0.074.

For `O=C(Nc1ccc([N+](=O)[O-])cc1Cl)c1cc(Cl)ccc1O` [Niclosamide (Niclocide)], the “fraction” value stood at 0.323 ± 0.29. The same measure for `CCCCCCCCCC(=O)N[C@H]1[C@H](Oc2c3cc4cc2Oc2ccc(cc2Cl)[C@@H](O[C@@H]2O[C@H](CO)[C@@H](O)[C@H](O)[C@H]2NC(C)=O)[C@@H]2NC(=O)[C@H](NC(=O)[C@@H]4NC(=O)[C@H]4NC(=O)[C@@H](Cc5ccc(c(Cl)c5)O3)NC(=O)[C@H](N)c3ccc(O)c(c3)Oc3cc(O)cc4c3)c3ccc(O)c(c3)-c3c(OC4O[C@H](CO)[C@@H](O)[C@H](O)[C@@H]4O)cc(O)cc3[C@@H](C(=O)O)NC2=O)O[C@H](CO)[C@@H](O)[C@@H]1O` (some centres undefined) [Teicoplanin]: 0.0942 ± 0.079; for `O=C(Nc1c(Cl)cncc1Cl)c1ccc(OC(F)F)c(OCC2CC2)c1` [Roflumilast (Daxas)]: 0.0965 ± 0.077. As for `C[C@@H](O)[C@H]1C(=O)N2C(C(=O)O)=C(S[C@@H]3CN[C@H](CNS(N)(=O)=O)C3)[C@H](C)[C@H]12` [Doripenem Hydrate], the “fraction” value stood at 0.133 ± 0.078. The figure for `Cc1c(OCC(F)(F)F)ccnc1C[S+]([O-])c1nc2ccccc2[nH]1` (centres undefined) [Lansoprazole] is 0.117 ± 0.052; for `COc1ccc2cccc(CCNC(C)=O)c2c1` [Agomelatine] it is 0.116 ± 0.07. `O=C(O)c1ccc(NC(=O)[C@H](Cc2ccc(O)cc2)NC(=O)c2ccccc2)cc1` [Bentiromide]: the “fraction” value came to 0.133 ± 0.11. The figure for `CS(=O)(=O)Nc1ccc([N+](=O)[O-])cc1Oc1ccccc1` [Nimesulide] is 0.148 ± 0.08; for `OC[C@@H](O)[C@@H](O)[C@H](O)[C@@H](O)CO` [Sorbitol (Glucitol)] it is 0.131 ± 0.11. The figure for `CCn1cc(C(=O)O)c(=O)c2cc(F)c(N3CCNCC3)cc21` [Norfloxacin (Norxacin)] is 0.0909 ± 0.031; for `C=C1/C(=C\C=C2/CCC[C@]3(C)[C@@H]([C@H](C)CCCC(C)(C)O)CC[C@@H]23)C[C@@H](O)C[C@@H]1O` [Calcitriol (Rocaltrol)] it is 0.0996 ± 0.076.

With `N=C(N)Nc1ccc(C(=O)Oc2ccc3cc(C(=N)N)ccc3c2)cc1` [Nafamostat mesylate], the “fraction” value is 0.095 ± 0.057. Turning to `COC(=O)C1=C(C)NC(C)=C(C(=O)OCC(C)C)C1c1ccccc1[N+](=O)[O-]` (centres undefined) [Nisoldipine (Sular)], the “fraction” value was found to be 0.12 ± 0.076. Consider `CCOc1ccccc1OC(c1ccccc1)C1CNCCO1` (centres undefined) [Reboxetine mesylate], for which the “fraction” value was determined as 0.096 ± 0.073. The same measure for `COc1cc(C(C)=O)ccc1OCCCN1CCC(c2noc3cc(F)ccc23)CC1` [Iloperidone (Fanapt)]: 0.119 ± 0.09. With `CCC(C)(C)c1ccc(CC(C)CN2C[C@@H](C)O[C@@H](C)C2)cc1` (some centres undefined) [Amorolfine Hydrochloride], the “fraction” value was found to be 0.104 ± 0.075. The figure for `Clc1ccc(CSC(Cn2ccnc2)c2ccc(Cl)cc2Cl)cc1` (centres undefined) [Sulconazole Nitrate] is 0.125 ± 0.097; for `CC(=O)OCC(=O)NCCCOc1cccc(CN2CCCCC2)c1` [Roxatidine acetate HCl] it is 0.106 ± 0.075.

As for `Nc1nc(=O)c2c([nH]1)NC[C@H](CNc1ccc(C(=O)N[C@@H](CCC(=O)O)C(=O)O)cc1)N2C=O` [Calcium levofolinate (Calcium Folinate)], the “fraction” value stood at 0.127 ± 0.09.

With `Cn1nnc2c(C(N)=O)ncn2c1=O` [Methazolastone], the “fraction” value is 0.11 ± 0.082. For the molecule `CCCc1nn(C)c2c(=O)[nH]c(-c3cc(S(=O)(=O)N4CCN(C)CC4)ccc3OCC)nc12` [Sildenafil citrate], the “fraction” value is 0.114 ± 0.08. Take `Cc1c(N(C)C)c(=O)n(-c2ccccc2)n1C` [Amidopyrine]: the “fraction” value amounted to 0.121 ± 0.08. With `C[C@]12C=CC(=O)C=C1CC[C@H]1[C@@H]3C[C@@H](O)[C@](O)(C(=O)CO)[C@@]3(C)C[C@H](O)[C@@]12F` [Triamcinolone (Aristocort)], the “fraction” value came to 0.154 ± 0.093. On to `CCCCCCCN(CC)CCCC(O)c1ccc(NS(C)(=O)=O)cc1` (centres undefined) [Ibutilide fumarate], for which the “fraction” value is 0.115 ± 0.072.

Consider `CN(C)CCC(c1ccc(Cl)cc1)c1ccccn1` (centres undefined) [Chlorpheniramine Maleate], for which the “fraction” value was 0.106 ± 0.088.

`CNCCC(Oc1ccc(C(F)(F)F)cc1)c1ccccc1` (centres undefined) [Fluoxetine  HCl]: the “fraction” value came to 0.114 ± 0.092.

On to `COc1cc(/C=C/C(=O)N2CCN(CC(=O)N3CCCC3)CC2)cc(OC)c1OC` [Cinepazide maleate], for which the “fraction” value came out at 0.159 ± 0.1. In the case of `CCOc1cc(N)c(Cl)cc1C(=O)NCC1CN(Cc2ccc(F)cc2)CCO1` (centres undefined) [Mosapride citrate], the “fraction” value turned out to be 0.116 ± 0.067. As to `CC1(C)S[C@@H]2[C@H](NC(=O)[C@H](NC(=O)N3CCNC3=O)c3ccccc3)C(=O)N2[C@H]1C(=O)O` [Azlocillin sodium salt], the “fraction” value was 0.141 ± 0.1. The same measure for `CS(=O)(=O)c1ccc(C2=C(c3ccccc3)C(=O)OC2)cc1` [Rofecoxib (Vioxx)]: 0.11 ± 0.07; for `COc1c(N2C[C@@H]3CCCN[C@@H]3C2)c(F)cc2c(=O)c(C(=O)O)cn(C3CC3)c12` [Moxifloxacin hydrochloride]: 0.0909 ± 0.073.

On to `COc1cc2c(cc1O)CC[C@@H]1[C@@H]2CC[C@]2(C)[C@@H](O)CC[C@@H]12` [2-Methoxyestradiol], for which the “fraction” value was 0.158 ± 0.089.
